Reference: PubChem BioAssay AID743255 (National Center for Advancing Translational Sciences (NCATS), 2014)
Out of some 390,000 compounds screened, about 910 (0.23%) were called active. This list was built around the results that the source calls inconclusive (neither active nor inactive); the mix of calls is not that of the screen. Calls follow the shape of the dose curve; as a rule, active = well fitted inhibition curve with a large enough effect; inconclusive = small, poorly fitted or top-dose-only effect; inactive = no such curve, though single readings can be large or run the other way. Where the call is inconclusive, the potency comes from a doubtful curve fit.

Amino acid sequences for entries named in this document (tags omitted). A change or cut given only in a name is not applied to a line headed by its entry.
UniProt O94782: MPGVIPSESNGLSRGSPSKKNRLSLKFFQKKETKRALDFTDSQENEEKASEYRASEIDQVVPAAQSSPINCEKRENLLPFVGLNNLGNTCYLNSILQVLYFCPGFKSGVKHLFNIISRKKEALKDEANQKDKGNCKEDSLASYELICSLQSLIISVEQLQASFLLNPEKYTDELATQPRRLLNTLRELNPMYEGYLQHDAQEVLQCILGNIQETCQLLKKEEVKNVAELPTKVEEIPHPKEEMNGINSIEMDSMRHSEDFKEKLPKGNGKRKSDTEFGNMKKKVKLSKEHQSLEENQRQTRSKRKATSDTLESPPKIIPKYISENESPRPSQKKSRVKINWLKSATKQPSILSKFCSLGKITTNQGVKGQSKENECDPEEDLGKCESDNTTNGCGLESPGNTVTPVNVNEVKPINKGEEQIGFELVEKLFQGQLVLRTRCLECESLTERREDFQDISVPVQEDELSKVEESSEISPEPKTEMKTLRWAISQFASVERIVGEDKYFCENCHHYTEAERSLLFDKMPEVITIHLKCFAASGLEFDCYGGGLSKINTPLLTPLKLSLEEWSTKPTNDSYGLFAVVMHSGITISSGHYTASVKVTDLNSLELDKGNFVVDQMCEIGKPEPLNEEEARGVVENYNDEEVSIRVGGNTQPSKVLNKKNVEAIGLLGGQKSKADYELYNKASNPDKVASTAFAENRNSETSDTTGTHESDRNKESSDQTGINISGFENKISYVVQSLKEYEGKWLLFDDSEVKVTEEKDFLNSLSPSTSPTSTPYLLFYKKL

What follows are compounds tested against Ubiquitin carboxyl-terminal hydrolase 1 (Homo sapiens) (UniProt O94782) (assay: Inhibitors of USP1/UAF1: Primary Screen). Conditions: recombinant USP1/UAF1, Ub-Rhodamine cleavage fluorescence; series mostly up to 57.1 µM.
Outline: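 1 nM enzyme complex + cpd, 15 min RT; start with Ub-Rho 150nM final; kinetic fluorescence ex 480/em 540, 6 reads q60 s. Buffer 50mM HEPES pH 7.8, 0.5mM EDTA, 0.1 mg/ml BSA, 1mM TCEP, 0.01% Tween-20.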
Also: nearly all actives have a fitted effect of over 60% in size.
Potency is read from the fitted curve at half-maximal effect.

Structure (SMILES)	Potency
N#CC1=C(N)SC(N)=C(C#N)C1c1cccc(O)c1	inconclusive: 35.5 µM [inhibitor, partial curve, poor fit]
CC(NC(=O)COC(=O)c1ccc([N+](=O)[O-])o1)c1ccccc1 (stereo not drawn)	inconclusive: 20 µM [inhibitor, partial curve]
Cc1noc(C)c1-c1nc(CS(=O)(=O)c2ccccc2)no1	inconclusive: 10 µM [inhibitor, partial curve, poor fit]
CC(C)c1ccc(S(=O)(=O)N2CCN(C(=O)CN3C(=O)NC(C)(c4ccccc4)C3=O)CC2)cc1 (stereo not drawn)	inconclusive: 8.91 µM [inhibitor, full curve, poor fit]
Cc1cc(C)n2nc(SCC(=O)N/N=C/c3ccccn3)nc2n1	inactive
CCOc1ccc(NC(=O)CCc2nc3cccnc3n2-c2ccccc2)cc1	inconclusive: 44.7 µM [inhibitor, partial curve, poor fit]
COc1ccc(S(=O)(=O)N2CN(Cc3ccco3)c3nc4ccccc4nc32)cc1	inconclusive: 28.2 µM [inhibitor, partial curve]
CCCSc1nc(NCc2ccco2)c2c3c(sc2n1)COC(C)(C)C3	inactive
CCN(CC)S(=O)(=O)c1cccc(NC(=O)COC(=O)c2n[nH]c(=O)c3ccccc23)c1	inactive
Cc1cc(=O)n2nc(N3CCCC(C(=O)NCc4ccccc4)C3)sc2n1 (stereo not drawn)	inconclusive: 6.31 µM [inhibitor, partial curve, poor fit]
Cc1cc(N2CCN(C)CC2)nc2ccc(NC(=S)NC3CC3)cc12	inactive
Cn1cccc1C(=O)OCC(=O)Nc1ccc2c(c1)OCO2	inconclusive: 3.98 µM [inhibitor, full curve, poor fit]
COc1ccc(/C=N/NC(=O)c2ccn[nH]2)cc1COc1ccc(Cl)cc1Cl	inconclusive: 50.1 µM [inhibitor, single point]
COc1ccc(OCc2cc(C(=O)NC3CCOCC3)no2)c2ccccc12	inconclusive: 31.6 µM [inhibitor, partial curve]
CCOc1cc(CNc2ccccc2)cc(Br)c1OCc1ccc(F)cc1	inconclusive: 39.8 µM [inhibitor, partial curve, poor fit]
O=C(N/N=C/c1cc(Br)ccc1O)C(=O)Nc1ccccc1OC(F)(F)C(F)F	inactive
Cc1ccc(NC(=O)c2oc3ccccc3c2NC(=O)c2ccc(F)c(F)c2)cc1	inconclusive: 3.55 µM [inhibitor, full curve]
OC(c1ccccc1)c1nc2ccccc2s1 (stereo not drawn)	inactive
COc1ccc2c(c1)c(CC(=O)Nc1ccc(C(C)=O)cc1)c(C)n2C(=O)c1ccc(Cl)cc1	inactive
COc1ccc(NC(=O)c2oc3ccccc3c2NC(=O)C23CC4CC(CC(C4)C2)C3)c(OC)c1	inconclusive: 10 µM [inhibitor, full curve, poor fit]
O=Cc1cn(-c2ccccc2)nc1-c1ccccc1	inactive
Cc1ccc(CCN2CC(C(=O)O)CC2=O)cc1 (stereo not drawn)	inconclusive: 0.708 µM [inhibitor, full curve]
O=C(NCc1ccccn1)c1ccc(Cn2c(=S)[nH]c3ccccc3c2=O)cc1	inconclusive: 44.7 µM [inhibitor, partial curve]

A second format for some results above:
Structure (SMILES) | Potency
N#CC1=C(N)SC(N)=C(C#N)C1c1cccc(O)c1 | inconclusive: 35.5 µM [inhibitor, partial curve, poor fit]
Cc1cc(N2CCN(C)CC2)nc2ccc(NC(=S)NC3CC3)cc12 | inactive
Cn1cccc1C(=O)OCC(=O)Nc1ccc2c(c1)OCO2 | inconclusive: 3.98 µM [inhibitor, full curve, poor fit]
COc1ccc2c(c1)c(CC(=O)Nc1ccc(C(C)=O)cc1)c(C)n2C(=O)c1ccc(Cl)cc1 | inactive
Cc1ccc(CCN2CC(C(=O)O)CC2=O)cc1 (stereo not drawn) | inconclusive: 0.708 µM [inhibitor, full curve]

(list continues)

Structure (SMILES)	Potency
COc1ccc(NC(=O)C2CCCN2C(=O)NCc2ccccc2)cc1 (stereo not drawn)	inconclusive: 3.98 µM [inhibitor, single point]
CCOC(=O)/C=C1\NC2(CCCCC2)Cc2cc(OC)c(OC)cc21	inconclusive: 7.94 µM [inhibitor, partial curve]
COC(=O)c1[nH]c2cc(OC)ccc2c1NC(=O)CCN1CCCC(C)(C)C1	inconclusive: 7.08 µM [inhibitor, single point]
COc1cc(NC(=O)[C@H](C)NC(=O)N2CCn3c2nc2ccccc23)cc(OC)c1	inconclusive: 14.1 µM [inhibitor, partial curve, poor fit]
COc1cccc(-n2c(=O)c3sccc3n(Cc3cc(=O)n4cc(Cl)ccc4n3)c2=O)c1	inactive
COc1ccc(Cl)cc1NC(=O)c1cc2ccccn2n1	inconclusive: 0.631 µM [inhibitor, full curve, poor fit]
O=C(Nc1cnccc1C(F)(F)F)NC1CCCCC1	inconclusive: 12.6 µM [inhibitor, partial curve, poor fit]
NS(=O)(=O)c1cccc(NC(=O)c2cccs2)c1	inconclusive: 31.6 µM [inhibitor, partial curve, poor fit]
O=C1Nc2ccccc2/C1=C/c1ccnc2ccccc12	inconclusive: 44.7 µM [inhibitor, partial curve]
CCCNC(=O)c1c(NC(=O)c2ccccc2F)sc2c1CCCCC2	inconclusive: 8.91 µM [inhibitor, partial curve, poor fit]
Cc1nc(-c2ccc(S(=O)(=O)Nc3ccc(OC(F)(F)F)cc3)cc2)co1	inconclusive: 0.355 µM [inhibitor, full curve]
CCOC(=O)c1c(CCl)nc2ccccc2c1-c1ccccc1	inconclusive: 22.4 µM [inhibitor, partial curve]
Cc1ccc(-c2nc3sc(CCNC(=O)c4ccco4)c(C)n3n2)cc1	inconclusive: 8.91 µM [inhibitor, full curve, poor fit]
CCOc1ccc(Nc2cc(=O)[nH]c(=O)[nH]2)cc1	inactive
CC(C)C(=O)Nc1c(C(=O)N2CCN(c3ccccc3F)CC2)oc2ccccc12	inactive
C=CCOc1ccccc1/C=c1\sc2nc(=O)c(C)nn2c1=O	inconclusive: 39.8 µM [inhibitor, single point]
O=C1NC(Cc2ccc(O)cc2)c2nc3cc(Cl)ccc3c(=O)n2-c2ncccc21 (stereo not drawn)	inconclusive: 44.7 µM [inhibitor, partial curve, poor fit]
O=C1C(Cc2ccccc2)Nc2ncnc(N3CCOCC3)c2N1Cc1ccc(Cl)cc1 (stereo not drawn)	inactive
CC(OC(=O)c1cnc2ccccc2n1)c1ccccc1Cl (stereo not drawn)	inactive
CCCn1c(N2CCN(Cc3ccc(Cl)cc3)CC2)nc2ccccc21	inactive
CCCc1cc(=O)oc2c(CNc3ccc(OCC)cc3)c(O)ccc12	inconclusive: 39.8 µM [inhibitor, partial curve]
Cc1ccc(C(=O)Nc2cc3cc(Cl)ccc3oc2=O)cc1	inconclusive: 70.8 µM [inhibitor, partial curve, poor fit]
Cc1oc2c(cc(NS(=O)(=O)c3ccc(F)cc3)c3ccccc32)c1C(=O)O	inconclusive: 28.2 µM [inhibitor, single point]

Structure (SMILES)	Potency
Nc1n[nH]c(=S)n1-c1ccc(Cl)cc1	inactive
CCOc1ccc2c(O)csc2c1	inactive
CCCC(=O)Nc1cccc(-c2nc3ncccc3o2)c1	inconclusive: 0.708 µM [inhibitor, full curve]
CC(=O)Nc1ccc(/C=N/Nc2nncc3ccccc23)cc1	inconclusive: 2 µM [inhibitor, partial curve]
COc1ccc(-c2cc([C@H]3[C@@H]4C=CCC[C@@]4(C)C(=O)N3Cc3ccccc3)ccc2F)cc1OC	inconclusive: 5.01 µM [inhibitor, partial curve]
O=C(COC(=O)c1ccccc1Br)NCC1CCCCC1	inconclusive: 6.31 µM [inhibitor, partial curve, poor fit]
COc1ccc(C(=O)N2CCOCC2)cc1Br	inconclusive: 44.7 µM [inhibitor, partial curve]
Cc1cccc2[nH]c(SCC(=O)O)nc12	inconclusive: 31.6 µM [inhibitor, partial curve]
Cc1ccc(C)c(NC(=O)CN(C)C(=O)COc2ccc3ccccc3c2)c1	inconclusive: 0.224 µM [inhibitor, full curve, poor fit]
COc1cc(Cl)c(C)cc1NC(=O)c1nn(-c2ccc(C)cc2)c(=O)n(C)c1=O	inconclusive: 2.24 µM [inhibitor, partial curve]
CCOc1ccc(S(=O)(=O)N(C(C)=O)c2ccc3oc(C)c(C(=O)OC)c3c2)cc1	inconclusive: 6.31 µM [inhibitor, single point]
O=C(NCc1ccco1)c1nc(-c2ccc(F)cc2)no1	inconclusive: 4.47 µM [inhibitor, single point]
Cc1c[n+]([O-])cc(C)c1Oc1ccccc1	inconclusive: 15.8 µM [inhibitor, partial curve, poor fit]
O=C1/C(=C/c2cccs2)CCC/C1=C\c1cccs1	inactive
CN1CCc2nc3sc(C(=O)Nc4c(F)cccc4F)c(N)c3cc2C1	inconclusive: 70.8 µM [inhibitor, partial curve, poor fit]
Cn1ccnc1SCC(=O)Nc1ccc2c(c1)OCO2	inactive
CCN(CC)CCCNC(=O)/C(=C\c1cccn1C)NC(=O)c1cccs1	inactive
CN(CCOc1ccccc1)CC(=O)Nc1cccc(C#N)c1	inconclusive: 39.8 µM [inhibitor, partial curve, poor fit]
COc1ccc(OC)c(/C=C/C(=O)Oc2ccc(C(C)=O)cc2)c1	inconclusive: 7.94 µM [inhibitor, partial curve]
Cc1ccc(S(=O)(=O)N2CCN(C(=O)CSc3ncn[nH]3)CC2)cc1	inconclusive: 31.6 µM [inhibitor, partial curve]
COc1ccc2c(c1)C(=C(C#N)C#N)C(=O)N2CCc1ccccc1	inconclusive: 44.7 µM [inhibitor, partial curve, poor fit]
CC1(C)CC(=O)C=C(NCc2ccccc2)C1	inconclusive: 0.794 µM [inhibitor, full curve, poor fit]
